From paper PMC6107761
No constants are given. Whether binding was seen depends on the method and setting. Some binding calls cover weakened binding; strength is not graded here.

Protein sequences, listed by entry. Tags and fused reporters are not part of them. Lines headed by an entry give the natural chain unless they say otherwise; changes in a name come on top. Chains listed by the source or under a name are the forms on record and can include a tag or linker.
human E64D CIB2 (O75838-1, form named): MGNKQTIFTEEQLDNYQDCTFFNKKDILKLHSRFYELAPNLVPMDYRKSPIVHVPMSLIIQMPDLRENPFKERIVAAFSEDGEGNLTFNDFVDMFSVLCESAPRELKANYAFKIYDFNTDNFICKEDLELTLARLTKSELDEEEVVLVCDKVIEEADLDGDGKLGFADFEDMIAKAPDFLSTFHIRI

What was measured:
[1] = biological target: T1, peptide of the membrane proximal segment of the cytoplasmic domain of α7B integrin, residues 1101-1116; assay: other fluorescence titration; results not shown: Trp emission spectra of the peptides with E64D CIB2, as for the WT; both purified
T1 sequence (peptide, N-terminal acetyl (Ac-); C-terminal amide (-NH2)): LLLWKMGFFKRAKHPE

[2] = biological target: T2, scrambled peptide obtained by shuffling the α7B_M sequence; assay: other fluorescence titration; Trp emission spectra of 4 μM peptide alone and with fixed concentrations of WT CIB2 (8 μM for α7B_M; 2, 4 and 8 μM for Scrb); 20 mM Hepes, 150 mM KCl, 1 mM DTT pH 7.5, 37°C, 1 mM Mg2+ and 1 mM Ca2+; both purified
T2 sequence (peptide, N-terminal acetyl (Ac-); C-terminal amide (-NH2)): KEFWGLHAKPRLKLMF

“human E64D CIB2 (from UniProt O75838-1 1-187)” was tested, and the binding [1] was “binds”.
For “human wild type calcium and integrin binding protein 2 (CIB2) (from UniProt O75838-1 1-187)”, the binding [2] was “no binding (tested: 8 μM)”.
